Data from the supplement of paper PMC12823440, “Inhibitors supercharge kinase turnover through native proteolytic circuits” (Nature, 2025).
Counter-ions that a name gives are not always drawn. Some of the results follow. The calls rarely recur for the same compound in another form.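 Kinases were expressed as nanoluciferase fusions in K562 cells and luminescence was read every 4 h between 2 and 18 h as percent of control, DMSO set to 100% and a positive control to 0%. A time point counts as decreased when the signal drops significantly (2 sigma). The hit call is the authors' own, does not follow from the count of time points alone, and its rule is not shown.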

Amino acid sequences for entries named in this document (tags omitted).
UniProt P29317, whole entry: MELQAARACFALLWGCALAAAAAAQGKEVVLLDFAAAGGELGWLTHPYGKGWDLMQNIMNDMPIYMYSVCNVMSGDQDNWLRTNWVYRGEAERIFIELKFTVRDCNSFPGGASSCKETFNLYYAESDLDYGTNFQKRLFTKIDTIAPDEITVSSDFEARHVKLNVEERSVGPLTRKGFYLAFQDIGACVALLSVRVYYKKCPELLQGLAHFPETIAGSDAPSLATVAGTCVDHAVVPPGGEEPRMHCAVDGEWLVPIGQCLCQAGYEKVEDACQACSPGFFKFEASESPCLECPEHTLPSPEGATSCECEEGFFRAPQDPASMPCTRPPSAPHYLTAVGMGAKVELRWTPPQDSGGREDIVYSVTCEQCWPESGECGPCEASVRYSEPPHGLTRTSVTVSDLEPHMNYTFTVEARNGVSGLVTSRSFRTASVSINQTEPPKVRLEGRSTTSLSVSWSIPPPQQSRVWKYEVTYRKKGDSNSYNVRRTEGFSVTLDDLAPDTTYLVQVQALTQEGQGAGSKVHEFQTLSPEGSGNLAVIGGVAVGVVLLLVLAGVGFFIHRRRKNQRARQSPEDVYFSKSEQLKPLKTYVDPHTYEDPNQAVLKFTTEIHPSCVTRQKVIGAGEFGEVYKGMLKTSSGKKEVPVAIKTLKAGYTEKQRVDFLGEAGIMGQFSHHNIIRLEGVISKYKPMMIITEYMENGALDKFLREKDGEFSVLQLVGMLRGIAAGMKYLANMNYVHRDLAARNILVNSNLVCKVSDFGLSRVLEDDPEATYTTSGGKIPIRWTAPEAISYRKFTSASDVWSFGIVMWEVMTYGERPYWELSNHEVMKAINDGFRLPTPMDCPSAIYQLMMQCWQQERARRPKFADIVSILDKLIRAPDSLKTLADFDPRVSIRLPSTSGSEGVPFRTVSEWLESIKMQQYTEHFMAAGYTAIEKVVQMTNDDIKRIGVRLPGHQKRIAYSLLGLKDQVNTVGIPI
UniProt P21860, whole entry: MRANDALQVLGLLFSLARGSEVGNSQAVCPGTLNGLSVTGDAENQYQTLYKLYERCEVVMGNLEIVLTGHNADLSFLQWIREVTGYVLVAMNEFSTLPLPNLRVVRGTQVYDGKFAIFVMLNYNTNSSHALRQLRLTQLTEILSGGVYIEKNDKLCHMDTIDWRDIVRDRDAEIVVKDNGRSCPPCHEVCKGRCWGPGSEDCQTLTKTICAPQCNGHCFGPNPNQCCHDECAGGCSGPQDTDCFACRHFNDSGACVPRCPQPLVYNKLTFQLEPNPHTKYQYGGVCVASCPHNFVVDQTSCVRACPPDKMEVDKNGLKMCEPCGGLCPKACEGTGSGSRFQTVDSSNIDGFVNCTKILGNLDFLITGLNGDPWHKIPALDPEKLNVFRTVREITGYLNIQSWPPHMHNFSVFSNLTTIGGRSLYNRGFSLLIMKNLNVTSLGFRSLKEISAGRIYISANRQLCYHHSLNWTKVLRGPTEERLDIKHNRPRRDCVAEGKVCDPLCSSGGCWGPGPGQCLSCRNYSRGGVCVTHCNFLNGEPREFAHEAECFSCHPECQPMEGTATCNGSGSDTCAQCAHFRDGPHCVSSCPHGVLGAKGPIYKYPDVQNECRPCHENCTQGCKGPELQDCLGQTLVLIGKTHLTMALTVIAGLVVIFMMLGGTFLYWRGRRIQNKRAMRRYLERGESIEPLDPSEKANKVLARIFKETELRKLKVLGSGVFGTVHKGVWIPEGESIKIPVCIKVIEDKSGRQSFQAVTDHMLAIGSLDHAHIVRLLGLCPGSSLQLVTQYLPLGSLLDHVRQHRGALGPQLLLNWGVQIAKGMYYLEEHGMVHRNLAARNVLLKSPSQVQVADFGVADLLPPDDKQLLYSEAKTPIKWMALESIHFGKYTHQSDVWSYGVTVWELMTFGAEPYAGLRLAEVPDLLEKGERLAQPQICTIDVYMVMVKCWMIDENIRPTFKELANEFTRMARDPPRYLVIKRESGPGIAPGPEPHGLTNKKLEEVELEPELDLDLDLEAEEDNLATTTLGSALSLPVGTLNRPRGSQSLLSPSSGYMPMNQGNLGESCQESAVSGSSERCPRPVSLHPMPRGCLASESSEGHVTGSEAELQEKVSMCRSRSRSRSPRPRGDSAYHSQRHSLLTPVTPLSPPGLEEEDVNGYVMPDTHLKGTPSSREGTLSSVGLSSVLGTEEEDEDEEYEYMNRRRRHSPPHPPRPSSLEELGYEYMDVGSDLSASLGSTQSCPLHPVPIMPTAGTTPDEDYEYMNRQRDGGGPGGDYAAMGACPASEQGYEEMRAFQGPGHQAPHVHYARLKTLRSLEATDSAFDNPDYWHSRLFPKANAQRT
UniProt Q15303, whole entry R711C: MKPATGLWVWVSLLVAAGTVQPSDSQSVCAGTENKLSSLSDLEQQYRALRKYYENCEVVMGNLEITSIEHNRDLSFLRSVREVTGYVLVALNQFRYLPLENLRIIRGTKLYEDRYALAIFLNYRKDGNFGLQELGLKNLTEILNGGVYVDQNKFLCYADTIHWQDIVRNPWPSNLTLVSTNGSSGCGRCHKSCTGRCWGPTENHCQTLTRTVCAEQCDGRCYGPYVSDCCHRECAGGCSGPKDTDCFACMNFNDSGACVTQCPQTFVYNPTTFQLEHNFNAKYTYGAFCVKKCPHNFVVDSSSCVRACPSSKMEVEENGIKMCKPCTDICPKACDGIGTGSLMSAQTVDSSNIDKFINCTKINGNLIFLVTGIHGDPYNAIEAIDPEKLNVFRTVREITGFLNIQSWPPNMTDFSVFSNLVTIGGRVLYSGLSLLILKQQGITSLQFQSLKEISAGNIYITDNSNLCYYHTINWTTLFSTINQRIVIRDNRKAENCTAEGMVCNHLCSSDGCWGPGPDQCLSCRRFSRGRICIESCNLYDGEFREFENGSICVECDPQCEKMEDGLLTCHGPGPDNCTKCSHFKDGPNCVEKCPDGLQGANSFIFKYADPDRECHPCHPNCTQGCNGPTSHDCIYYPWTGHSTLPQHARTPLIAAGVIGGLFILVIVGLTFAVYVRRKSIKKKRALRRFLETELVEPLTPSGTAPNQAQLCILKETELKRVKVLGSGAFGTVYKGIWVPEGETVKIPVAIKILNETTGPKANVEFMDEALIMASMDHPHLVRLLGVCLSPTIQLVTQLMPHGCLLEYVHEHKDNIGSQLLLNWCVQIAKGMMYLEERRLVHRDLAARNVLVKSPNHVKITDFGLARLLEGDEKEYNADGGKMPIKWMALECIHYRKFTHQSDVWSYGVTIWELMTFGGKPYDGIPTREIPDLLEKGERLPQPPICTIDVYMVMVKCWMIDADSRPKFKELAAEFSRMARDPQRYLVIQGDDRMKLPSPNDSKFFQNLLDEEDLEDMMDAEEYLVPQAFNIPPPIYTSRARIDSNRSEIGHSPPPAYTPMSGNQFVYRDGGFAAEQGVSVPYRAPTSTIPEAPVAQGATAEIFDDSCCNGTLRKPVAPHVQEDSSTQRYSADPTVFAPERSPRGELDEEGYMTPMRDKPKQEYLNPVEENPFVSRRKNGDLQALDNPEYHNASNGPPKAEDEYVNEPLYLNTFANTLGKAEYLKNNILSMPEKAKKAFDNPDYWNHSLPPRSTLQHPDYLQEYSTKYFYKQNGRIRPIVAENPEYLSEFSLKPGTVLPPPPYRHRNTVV

What was measured:
Test in all cases: kinase-Nluc reporter destabilization hit call (1 = scored as downregulated) (binary); higher = compound decreases kinase abundance
Conditions in all cases: K562; 2-18 h
EGFR = EGFR (UniProt P00533)
EGFR_G719S = EGFR_G719S (UniProt P00533)
EGFR_G719S_T790M = EGFR_G719S_T790M (UniProt P00533)
EGFR_L718V = EGFR_L718V (UniProt P00533)
EGFR_L858R = EGFR_L858R (UniProt P00533)
EGFR_L861Q = EGFR_L861Q (UniProt P00533)
EGFR_T790M = EGFR_T790M (UniProt P00533)
EPHA2 = EPHA2 (UniProt P29317)
ERBB3 = ERBB3 (UniProt P21860)
[1] = target: ERBB4_R711C (clone: ERBB4_mut) (UniProt Q15303)

Measured: kinase-Nluc reporter destabilization hit call

COc1ccc(NC(=O)N2CCN(c3nc(N)nc4c3cnn4C)[C@@H](C)C2)c(C)c1 (10 µM)
inactive: EGFR 0 | EGFR_G719S 0 | EGFR_G719S_T790M 0 | EGFR_L718V 0 | EGFR_L858R 0 | EGFR_L861Q 0 | EGFR_T790M 0 | EPHA2 = 0 | ERBB3 = 0 | [1] 0

CC(=O)N1CCN(c2ccc(OCC3COC(Cn4ccnc4)(c4ccc(Cl)cc4Cl)O3)cc2)CC1 (stereo not given) [Ketoconazole] (2.5 µM)
inactive: EGFR 0 | EGFR_G719S 0 | EGFR_G719S_T790M 0 | EGFR_L718V 0 | EGFR_L858R 0 | EGFR_L861Q 0 | EGFR_T790M 0 | EPHA2 = 0 | ERBB3 = 0 | [1] 0

c1cc(OCCN2CCCCC2)cc(-c2n[nH]c3ccc(-c4nnc[nH]4)cc23)c1 [CC-401 (hydrochloride)] (10 µM)
inactive: EGFR 0 | EGFR_G719S 0 | EGFR_G719S_T790M 0 | EGFR_L718V 0 | EGFR_L858R 0 | EGFR_L861Q 0 | EGFR_T790M 0 | EPHA2 = 0 | ERBB3 = 0 | [1] 0

CCOc1cc2ncc(-c3cc(N)nc(F)c3)n2cc1S(=O)(=O)C(C)(C)C (10 µM)
inactive: EGFR 0 | EGFR_G719S 0 | EGFR_G719S_T790M 0 | EGFR_L718V 0 | EGFR_L858R 0 | EGFR_L861Q 0 | EGFR_T790M 0 | EPHA2 = 0 | ERBB3 = 0 | [1] 0

CN(C)C(=O)/C(C#N)=C/c1ccc(-c2nc3cnc4[nH]ccc4c3n2C2CCCCC2)o1 (10 µM)
inactive: EGFR 0 | EGFR_G719S 0 | EGFR_G719S_T790M 0 | EGFR_L718V 0 | EGFR_L858R 0 | EGFR_L861Q 0 | EGFR_T790M 0 | EPHA2 = 0 | ERBB3 = 0 | [1] 0

Cc1ccc2c(Nc3ccc(Cl)cc3)nccc2c1Nc1ncccc1-c1ncnc2nc[nH]c12 [Raf inhibitor 1] (2.5 µM)
inactive: EGFR 0 | EGFR_G719S 0 | EGFR_G719S_T790M 0 | EGFR_L718V 0 | EGFR_L858R 0 | EGFR_L861Q 0 | EGFR_T790M 0 | EPHA2 = 0 | ERBB3 = 0 | [1] 0

COCc1c(-c2ccc(NC(=O)Nc3cc(C(F)(F)F)ccc3F)c(F)c2)c2c(N)ncnn2c1CN1CCOCC1 (2.5 µM)
inactive: EGFR 0 | EGFR_G719S 0 | EGFR_G719S_T790M 0 | EGFR_L718V 0 | EGFR_L858R 0 | EGFR_L861Q 0 | EGFR_T790M 0 | EPHA2 = 0 | ERBB3 = 0 | [1] 0

CN1CCN(c2ccc(C(=O)Nc3n[nH]c4ccc(Cc5cc(F)cc(F)c5)cc34)c(NC3CCOCC3)c2)CC1 [Entrectinib] (2.5 µM)
inactive: EGFR 0 | EGFR_G719S 0 | EGFR_G719S_T790M 0 | EGFR_L718V 0 | EGFR_L858R 0 | EGFR_L861Q 0 | EGFR_T790M 0 | EPHA2 = 0 | ERBB3 = 0 | [1] 0

COC(=O)c1ccc2c(C(=Nc3ccc(N(C)C(=O)CN4CCN(C)CC4)cc3)c3ccccc3)c(O)[nH]c2c1 [Nintedanib] (2.5 µM)
inactive: EGFR 0 | EGFR_G719S 0 | EGFR_G719S_T790M 0 | EGFR_L718V 0 | EGFR_L858R 0 | EGFR_L861Q 0 | EGFR_T790M 0 | EPHA2 = 0 | ERBB3 = 0 | [1] 0

Cc1cccc([C@@H](CO)NC(=O)[C@@H](C)N2Cc3ccc(-c4nc(NC5CCOCC5)ncc4Cl)cc3C2=O)c1 [ERK1/2 inhibitor 1] (10 µM)
inactive: EGFR 0 | EGFR_G719S 0 | EGFR_G719S_T790M 0 | EGFR_L718V 0 | EGFR_L858R 0 | EGFR_L861Q 0 | EGFR_T790M 0 | EPHA2 = 0 | ERBB3 = 0 | [1] 0

CNC(=O)c1cccc2cc(Oc3ccnc4cc(OCC5(N)CC5)c(OC)cc34)ccc12 [Lucitanib] (10 µM)
inactive: EGFR 0 | EGFR_G719S 0 | EGFR_G719S_T790M 0 | EGFR_L718V 0 | EGFR_L858R 0 | EGFR_L861Q 0 | EGFR_T790M 0 | EPHA2 = 0 | ERBB3 = 0 | [1] 0

COc1cc(C(=O)NC2CCN(C)CC2)ccc1Nc1ncc2c(n1)N(C1CCCC1)CC(F)(F)C(=O)N2C (10 µM)
inactive: EGFR 0 | EGFR_G719S 0 | EGFR_G719S_T790M 0 | EGFR_L718V 0 | EGFR_L858R 0 | EGFR_L861Q 0 | EGFR_T790M 0 | EPHA2 = 0 | ERBB3 = 0 | [1] 0

Cc1c[nH]c(/C=C2\C(=O)Nc3ccccc32)c1CCC(=O)O (10 µM)
inactive: EGFR 0 | EGFR_G719S 0 | EGFR_G719S_T790M 0 | EGFR_L718V 0 | EGFR_L858R 0 | EGFR_L861Q 0 | EGFR_T790M 0 | EPHA2 = 0 | ERBB3 = 0 | [1] 0

CC(C)(C)n1nc(Cc2cccc3ccccc23)c2c(N)ncnc21 (10 µM)
inactive: EGFR 0 | EGFR_G719S 0 | EGFR_G719S_T790M 0 | EGFR_L718V 0 | EGFR_L858R 0 | EGFR_L861Q 0 | EGFR_T790M 0 | EPHA2 = 0 | ERBB3 = 0 | [1] 0

CC(C)=CC/C=C(\C)[C@H]1CC[C@]2(C)[C@@H]1[C@H](O)C[C@@H]1[C@@]3(C)CC[C@H](O[C@@H]4O[C@H](CO)[C@@H](O)[C@H](O)[C@H]4O[C@@H]4O[C@H](CO)[C@@H](O)[C@H](O)[C@H]4O)C(C)(C)[C@@H]3CC[C@]12C [Ginsenoside Rg5] (10 µM)
inactive: EGFR 0 | EGFR_G719S 0 | EGFR_G719S_T790M 0 | EGFR_L718V 0 | EGFR_L858R 0 | EGFR_L861Q 0 | EGFR_T790M 0 | EPHA2 = 0 | ERBB3 = 0 | [1] 0

Sorted by molar mass (largest number first): some entries from above.
CNC(=O)c1cccc2cc(Oc3ccnc4cc(OCC5(N)CC5)c(OC)cc34)ccc12 [Lucitanib] (10 µM)
inactive: EGFR 0 | EGFR_G719S 0 | EGFR_G719S_T790M 0 | EGFR_L718V 0 | EGFR_L858R 0 | EGFR_L861Q 0 | EGFR_T790M 0 | EPHA2 = 0 | ERBB3 = 0 | [1] 0

CC(C)(C)n1nc(Cc2cccc3ccccc23)c2c(N)ncnc21 (10 µM)
inactive: EGFR 0 | EGFR_G719S 0 | EGFR_G719S_T790M 0 | EGFR_L718V 0 | EGFR_L858R 0 | EGFR_L861Q 0 | EGFR_T790M 0 | EPHA2 = 0 | ERBB3 = 0 | [1] 0

Cc1c[nH]c(/C=C2\C(=O)Nc3ccccc32)c1CCC(=O)O (10 µM)
inactive: EGFR 0 | EGFR_G719S 0 | EGFR_G719S_T790M 0 | EGFR_L718V 0 | EGFR_L858R 0 | EGFR_L861Q 0 | EGFR_T790M 0 | EPHA2 = 0 | ERBB3 = 0 | [1] 0

Additional structures follow:

COc1cc2c(Nc3ccc(NC(=O)c4ccccc4)cc3)ncnc2cc1OCCCN1CCOCC1 (10 µM)
inactive: EGFR 0 | EGFR_G719S 0 | EGFR_G719S_T790M 0 | EGFR_L718V 0 | EGFR_L858R 0 | EGFR_L861Q 0 | EGFR_T790M 0 | EPHA2 = 0 | ERBB3 = 0 | [1] 0

Cc1ncc(-c2ccnc(Nc3ccc(S(C)(=O)=O)cc3)n2)n1C(C)C (2.5 µM)
inactive: EGFR 0 | EGFR_G719S 0 | EGFR_G719S_T790M 0 | EGFR_L718V 0 | EGFR_L858R 0 | EGFR_L861Q 0 | EGFR_T790M 0 | EPHA2 = 0 | ERBB3 = 0 | [1] 0

CC(C)(/C=C(\C#N)C(=O)N1CCC[C@@H](n2nc(-c3ccc(Oc4ccccc4)cc3F)c3c(N)ncnc32)C1)N1CCN(C2COC2)CC1 (2.5 µM)
inactive: EGFR 0 | EGFR_G719S 0 | EGFR_G719S_T790M 0 | EGFR_L718V 0 | EGFR_L858R 0 | EGFR_L861Q 0 | EGFR_T790M 0 | EPHA2 = 0 | ERBB3 = 0 | [1] 0

COc1cc(OC)cc(N(CCNC(C)C)c2ccc3ncc(-c4cnn(C)c4)nc3c2)c1 [Erdafitinib] (2.5 µM)
inactive: EGFR 0 | EGFR_G719S 0 | EGFR_G719S_T790M 0 | EGFR_L718V 0 | EGFR_L858R 0 | EGFR_L861Q 0 | EGFR_T790M 0 | EPHA2 = 0 | ERBB3 = 0 | [1] 0

CC[C@H](CO)Nc1nc(NCc2ccccc2)c2ncn(C(C)C)c2n1 [Seliciclib] (10 µM)
inactive: EGFR 0 | EGFR_G719S 0 | EGFR_G719S_T790M 0 | EGFR_L718V 0 | EGFR_L858R 0 | EGFR_L861Q 0 | EGFR_T790M 0 | EPHA2 = 0 | ERBB3 = 0 | [1] 0

CN(C)C[C@@H]1CCn2cc(c3ccccc32)C2=C(C(=O)NC2=O)c2cn(c3ccccc23)CCO1 [Ruboxistaurin (hydrochloride)] (10 µM)
inactive: EGFR 0 | EGFR_G719S 0 | EGFR_G719S_T790M 0 | EGFR_L718V 0 | EGFR_L858R 0 | EGFR_L861Q 0 | EGFR_T790M 0 | EPHA2 = 0 | ERBB3 = 0 | [1] 0

CC(C)(C)c1cc(NC(=O)Nc2ccc(-c3cn4c(n3)sc3cc(OCCN5CCOCC5)ccc34)cc2)no1 [Quizartinib] (10 µM)
inactive: EGFR 0 | EGFR_G719S 0 | EGFR_G719S_T790M 0 | EGFR_L718V 0 | EGFR_L858R 0 | EGFR_L861Q 0 | EGFR_T790M 0 | EPHA2 = 0 | ERBB3 = 0 | [1] 0

COc1cc2ncn(-c3cc(OCc4ccccc4C(F)(F)F)c(C(N)=O)s3)c2cc1OC (10 µM)
inactive: EGFR 0 | EGFR_G719S 0 | EGFR_G719S_T790M 0 | EGFR_L718V 0 | EGFR_L858R 0 | EGFR_L861Q 0 | EGFR_T790M 0 | EPHA2 = 0 | ERBB3 = 0 | [1] 0

CCCCNc1ncc(-c2ccc(CN3CCOCC3)cn2)c(NC2CCC(O)CC2)n1 (stereo not given) (10 µM)
inactive: EGFR 0 | EGFR_G719S 0 | EGFR_G719S_T790M 0 | EGFR_L718V 0 | EGFR_L858R 0 | EGFR_L861Q 0 | EGFR_T790M 0 | EPHA2 = 0 | ERBB3 = 0 | [1] 0

O=C(/C=C/c1ccc(O)c(O)c1)c1ccc(O)cc1O [Butein] (10 µM)
inactive: EGFR 0 | EGFR_G719S 0 | EGFR_G719S_T790M 0 | EGFR_L718V 0 | EGFR_L858R 0 | EGFR_L861Q 0 | EGFR_T790M 0 | EPHA2 = 0 | ERBB3 = 0 | [1] 0

Cc1c(NC(=O)c2cc3c(s2)CCCC3)cccc1-c1cn(C)c(=O)c(Nc2ccc([C@@H]3C(=O)N(C)CCN3C)cc2)n1 (10 µM)
inactive: EGFR 0 | EGFR_G719S 0 | EGFR_G719S_T790M 0 | EGFR_L718V 0 | EGFR_L858R 0 | EGFR_L861Q 0 | EGFR_T790M 0 | EPHA2 = 0 | ERBB3 = 0 | [1] 0

CN1CCN(S(=O)(=O)c2ccc(-c3cnc(N)c(C(=O)Nc4cccnc4)n3)cc2)CC1 (10 µM)
inactive: EGFR 0 | EGFR_G719S 0 | EGFR_G719S_T790M 0 | EGFR_L718V 0 | EGFR_L858R 0 | EGFR_L861Q 0 | EGFR_T790M 0 | EPHA2 = 0 | ERBB3 = 0 | [1] 0

Cc1[nH]c(/C=C2\C(=O)Nc3ccc(S(=O)(=O)Cc4c(Cl)cccc4Cl)cc32)c(C)c1C(=O)N1CCC[C@@H]1CN1CCCC1 (2.5 µM)
inactive: EGFR 0 | EGFR_G719S 0 | EGFR_G719S_T790M 0 | EGFR_L718V 0 | EGFR_L858R 0 | EGFR_L861Q 0 | EGFR_T790M 0 | EPHA2 = 0 | ERBB3 = 0 | [1] 0
